Values of other authors in patent publication US20240308878A1, “WATER TREATMENT SYSTEM, WATER TREATMENT METHOD, AND AMINE SOLUTION” (KABUSHIKI KAISHA TOSHIBA, priority 2023, published 2024).
Some entries share one result that the patent states for a list of compounds.

Details: at room temperature; cited from earlier work

Structure (SMILES): CCCCC(CC)CN (stereo not drawn) [2-ethylhexylamine]
- vapor pressure: ≥ 1 Torr

Structure (SMILES): CCNCc1ccccc1 [N-ethylbenzylamine]
- vapor pressure: ≥ 1 Torr

Structure (SMILES): CCCCNCCCC [dibutylamine]
- vapor pressure: ≥ 1 Torr

Structure (SMILES): CCCCCCCN [heptylamine]
- vapor pressure: ≥ 1 Torr

Structure (SMILES): CCCCCCCCN [octylamine]
- vapor pressure: ≥ 1 Torr

Structure (SMILES): CCCCNCCC [propylbutylamine]
- vapor pressure: ≥ 1 Torr
